Data on twelve molecules can be found in patent US20060257938A1, “Method of screening for drugs that block ligand binding to a lipid binding protein” (priority 2005, published 2006).

Numbering of substitutions follows the chain as printed.

To fix the notation:
B1: 18V 31V 73I 72A (protein, listed as Rattus norvegicus)
chain: AFDGTWKVDRNENYEKFVEKMGINVVKRKLVAHDNLKLTITQEGNKFTVKESSNFRNIDVVFELGVDFAYSAIDGTELTGTWTMEGNKLVGKFKRVDNGKELIAVREISGNELIQTYTYEGVEAKRIFKKE
modifications: PEPTIDE (1)...(131) wild-type rat intestinal fatty acid binding protein
B2: 18V 31Y 55I 73G 72A (protein, listed as Rattus norvegicus)
chain: B1 chain with V31Y, F55I, I73G
modifications: PEPTIDE (1)...(131) wild-type rat intestinal fatty acid binding protein
B3: 14L 31W 117V 72A (protein, listed as Rattus norvegicus)
chain: B1 chain with Y14L, V18M, V31W, I73A, Y117V
modifications: PEPTIDE (1)...(131) wild-type rat intestinal fatty acid binding protein
B4: 14L 18L 73W 117S 72A (protein, listed as Rattus norvegicus)
chain: B1 chain with Y14L, V18L, V31G, I73W, Y117S
modifications: PEPTIDE (1)...(131) wild-type rat intestinal fatty acid binding protein
B5: 14Q 18S 73I 117W 72A (protein, listed as Rattus norvegicus)
chain: B1 chain with Y14Q, V18S, V31G, Y117W
modifications: PEPTIDE (1)...(131) wild-type rat intestinal fatty acid binding protein
B6: 14M 72M 117A (protein, listed as Rattus norvegicus)
chain: B1 chain with Y14M, V18M, V31G, A72M, I73A, Y117A
modifications: PEPTIDE (1)...(131) wild-type rat intestinal fatty acid binding protein
B7: 119M, 72A (protein, listed as Rattus norvegicus)
chain: B1 chain with V18M, V31G, I73A, Y119M
modifications: PEPTIDE (1)...(131) wild-type rat intestinal fatty acid binding protein
B8: 38W 106H 117A 72A (protein, listed as Rattus norvegicus)
chain: B1 chain with V18M, V31G, L38W, I73A, R106H, Y117A
modifications: PEPTIDE (1)...(131) wild-type rat intestinal fatty acid binding protein
B9: 18I 55G 73M 72A (protein, listed as Rattus norvegicus)
chain: B1 chain with V18I, V31G, F55G, I73M
modifications: PEPTIDE (1)...(131) wild-type rat intestinal fatty acid binding protein
B10: 78F, 72A (protein, listed as Rattus norvegicus)
chain: B1 chain with V18M, V31G, I73A, L78F
modifications: PEPTIDE (1)...(131) wild-type rat intestinal fatty acid binding protein
B11: 18I 31L 72A (protein, listed as Rattus norvegicus)
chain: B1 chain with V18I, V31L, I73A
modifications: PEPTIDE (1)...(131) wild-type rat intestinal fatty acid binding protein
B12: 18I 31L 73G 72A (protein, listed as Rattus norvegicus)
chain: B1 chain with V18I, V31L, I73G
modifications: PEPTIDE (1)...(131) wild-type rat intestinal fatty acid binding protein

One series can be described thus: Baseline fluorescence ratio Ro of probe in absence of analyte. Conditions: baseline fluorescence ratio of probe.
For B1, the Ro stood at 0.329.
B2: the Ro was 0.383.
As to B3, the Ro was 0.259.
For B4, the Ro came to 0.562.
With B5, the Ro was 0.487.
The same measure, in the same setting: for B6 the value was 0.305; for B7, 0.343.
Consider B8, for which the Ro came to 0.414.
Regarding B9, the Ro turned out to be 0.303.
Take B10: the Ro was 0.219.
Consider B11, for which the Ro came out at 0.310.
Regarding B12, the Ro came out at 0.367.

Staying with this series, now noted: baseline fluorescence ratio of probe, no fatty acid.
In the case of B2, the Ro came to 0.383.
On the same count and under the same terms, for B3 the value was 0.259; for B4, 0.562; for B5, 0.487.
As to B8, the Ro came to 0.414.
